Experimental data published in patent publication US20080176792A1, “VEGFR-1 TARGETING PEPTIDES” (priority 2000, published 2008).
No constants are given. Whether binding was seen depends on the method and setting. Some results given as binding are weak or reduced against the parent protein; the word gives no strength.

Chains of the proteins cited; added tags and fusions are not shown. Residues count along the entry.
UniProt P17948, residues 27-758: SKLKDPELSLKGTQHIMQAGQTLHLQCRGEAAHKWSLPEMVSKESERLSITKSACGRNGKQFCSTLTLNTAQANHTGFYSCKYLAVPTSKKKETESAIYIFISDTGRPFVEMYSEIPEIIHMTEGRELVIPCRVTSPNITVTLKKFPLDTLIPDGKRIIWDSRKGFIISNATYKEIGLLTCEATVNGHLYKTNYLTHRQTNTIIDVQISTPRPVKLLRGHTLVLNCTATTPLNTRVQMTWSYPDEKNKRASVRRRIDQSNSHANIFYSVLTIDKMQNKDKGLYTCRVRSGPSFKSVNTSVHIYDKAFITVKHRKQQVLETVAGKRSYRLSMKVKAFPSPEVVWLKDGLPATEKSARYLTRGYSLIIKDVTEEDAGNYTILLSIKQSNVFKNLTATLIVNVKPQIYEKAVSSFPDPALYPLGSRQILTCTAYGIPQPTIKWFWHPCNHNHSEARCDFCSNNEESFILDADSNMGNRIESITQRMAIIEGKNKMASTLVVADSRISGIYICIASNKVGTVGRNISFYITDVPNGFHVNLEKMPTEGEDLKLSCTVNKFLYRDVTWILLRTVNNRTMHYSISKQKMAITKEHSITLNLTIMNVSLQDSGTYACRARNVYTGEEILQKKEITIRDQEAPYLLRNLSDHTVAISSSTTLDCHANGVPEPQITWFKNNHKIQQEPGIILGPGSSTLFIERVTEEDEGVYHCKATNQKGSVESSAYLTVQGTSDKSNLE

Key:
[1] = target: T1, recombinant human VEGFR-1 (human, UniProt P17948 27-758, limits assumed); test: summing up of the phage binding and competition assays on immobilized receptors
T1 construct: Bought; immobilized on microtiter wells (1 ug in 50 ul PBS); also called Flt1

[2] = target: T1, recombinant human VEGFR-1; test: competition of clone-19 phage binding to immobilized VEGFR-1 (not shown)

binding [1]: binds | binding [2]: binds
B1: synthetic cognate peptide CPQPRPLC (SEQ ID NO:6) (peptide)
peptide: CPQPRPLC
modifications: cyclized (peptides were synthesized, cyclized)
